Source: patent US20190177434A1
Residue numbers refer to the chain shown, from its start. Results are given in words; binding and its absence hold for the method and conditions named. Binding can be weak; no strength is given. Tags and fused reporters may be left off the sequences shown.

B1: IgG-Fc-16 (VHH)
VHH: QVQLQESGGGLVQAGGSLRLSCAASGRAVGNYIIGWFRQAPGKEREFVATTTRDGGSTFYADSVKGRFTISRDNAKNTVNLQMNSLEPEDTAVYYCAAKSWSVPLRPTSADFDSWGQGTQVTVSS
B2: IgG-Fc-28 (VHH)
VHH: QVQLQDSGGGLVQAGGSLRLSCAASGRTFSSGAMGWFRQTPGKEREFVAAINWSVGSTYYADSVKDRFTISRDKAKNTVYLQMNSLKPEDTAVYYCAADEADGPMAPYGFRGDYWGKGTLVTVSS
B3: IgG-Fc-29 (VHH)
VHH: B2 VHH with D6E, S63A, K74N
B4: IgG-Fc-30 (VHH)
VHH: B2 VHH with D6E, S54N, V55I, S57N, K74S, D99N
B5: IgG-Fc-48 (VHH)
VHH: QVQLQESGGGLVQPGESLRLSCAASGIAFEVFNMGWYRQAPGKQRELVATITNSGATNYADSVKGRFTISRDNAKDTLYLQMNSLKPEDTAVYYCNAQNSWRNIWGQGTQVTVSS
B6: IgG-Fc-01 (VHH)
VHH: QVQLQESGGGLVQPGGSLRLSCAASGGTSIRIGSINALAWYRQALGNQRELVAAVTEGGSTNYADFVKGRFTISRDNAQNMMYLQMNSLKPEDTAVYYCNADKVLYSRGGYYSVANDLWGQGTQVTVSS
B7: IgG-Fc-10 (VHH)
VHH: QVQLQESGGGLVQAGDSLRISCRASGLTVNDLYMGWFRQAPGKEREFVGRVTPGDNTDYTYYVDSVKGRFTISRDSAKNTVYLQMNSLKLEDTAVYLCAGRRFGSSEWDYWGQGTQVTVSS
B8: IgG-Fc-37 (VHH)
VHH: QVQLQESGGGLVQAGDSLRLSCAALGRTFSDYHMGWFRQAPGKERTFVAAITWNGGDTVFEDSVKGRFTISRDNGKKTVSLQMSSLQPEDTAVYYCAASLAVLTRPTAPVISSSYDYWGQGTQVTVSS
B9: IgG-Fc-42 (VHH)
VHH: QVQLQESGGGLVQAGDSLRLSCAASGRTSWIYGMAWFRQAPGKEREFVAFISSSGSPFYADSLKGRVTVSRDNAKNTAYLVINSLKPEDTAVYSCATGPKTTAYYTADYHYWAQGTQVTVSS
B10: IgG-Fc-47 (VHH)
VHH: QVQLQESGGGLVQAGDSLRLSCAASGRTLSSYAMGWFRQVPGKGREFVAAIRRSGGSTYYADSAEGRFTISRDNAKNTVYLQMNNLRPEDTAVYYCAAGDDLVDQYDYWGQGTQVTVSS
B11: IgG-Fc-49 (VHH)
VHH: QVQLQESGGGLVQPGGSLRVSCAASGFTFSSYYMSWVRQAPGKGLEWVSSINTGASSTYYAESVKGRFTISRDNAKNTLYLQMNSLKPEDTARYFCVRGRSVMDYWGKGTLVTVSS

These binders were tested against syrian hamster IgG-Fc (syrian hamster) (assay: ELISA).

Binder	binding
B1	binds
B2	binds
B3	binds
B4	binds
B5	binds
B6	no binding
B7	no binding

These binders were tested against cat IgG-Fc (cat) (assay: ELISA).

Binder	binding
B1	binds
B2	binds
B3	binds
B4	binds
B8	binds
B9	binds
B10	binds
B5	binds
B11	binds
B6	no binding
B7	no binding

What follows are binders tested against goat IgG-Fc (goat) (assay: ELISA).

Binder	binding
B1	binds
B2	binds
B3	binds
B4	binds
B5	binds
B6	no binding
B7	no binding

What follows are binders tested against chimpanzee IgG-Fc (chimpanzee) (assay: ELISA).

Binder	binding
B1	binds
B2	binds
B3	binds
B4	binds
B8	binds
B9	binds
B10	binds
B5	binds
B11	binds

Each binder was assayed against donkey IgG-Fc (donkey) (assay: ELISA).

Binder	binding
B1	binds
B2	binds
B3	binds
B4	binds
B8	binds
B9	binds
B10	binds
B5	binds
B11	binds

These binders were tested against guinea pig IgG-Fc (guinea pig) (assay: ELISA).

Binder	binding
B1	binds
B2	binds
B3	binds
B4	binds
B5	binds
B6	no binding
B7	no binding

These binders were tested against horse IgG-Fc (horse) (assay: ELISA).

Binder	binding
B1	binds
B2	binds
B3	binds
B4	binds
B8	binds
B9	binds
B10	binds
B5	binds
B11	binds

Each binder was assayed against sheep IgG-Fc (sheep) (assay: ELISA).

Binder	binding
B1	binds
B2	binds
B3	binds
B4	binds
B8	binds
B9	binds
B10	binds
B5	binds
B11	binds
B6	no binding
B7	no binding

The binders below were run against swine IgG-Fc (swine) (assay: ELISA).

Binder	binding
B1	binds
B2	binds
B3	binds
B4	binds
B8	binds
B9	binds
B10	binds
B5	binds
B11	binds
